Patent publication US20240108662A1, “ENGINEERED CELLS FUNCTIONALIZED WITH IMMUNE CHECKPOINT MOLECULES AND USES THEREOF” (The University of North Carolina at Chapel Hill, priority 2020, published 2024)

Test: Proteomic analysis of native murine pancreata and decelled pancreatic ECM (Table 1)
Parameters: species or system mouse
Conditions: for Pancreatic ECM: Mean of log2(intensities): abundance of the listed protein in decelled pancreatic ECM; for Native pancreas tissue: Mean of log2(intensities): abundance of the listed protein in native murine pancreas tissue

B1: O70585 (protein, UniProt O70585 1-659, looked up)
chain: MIEEGGNKRKTMAEKRQLFIEMRAQNFDVIRLSTYRTACKLRFVQKRCNLHLVDIWNMIEAFRDNGLNTLDHSTEISVSRLETVISSIYYQLNKRLPSTHQISVEQSISLLLNFMVAAYDSEGRGKLTVFSVKAMLATMCGGKMLDKLRYIFSQMSDSNGLMMFGKLDQFLKEALKLPTAVFEGPSFGYTEHAVRTCFPQQKKIMLNMFLDTMMADPPPQCLVWLPLMHRLAHVENVFHPVECSYCHCESMMGFRYRCQQCHNYQLCQNCFWRGHASGAHSNQHQMKEHSSWKSPAKKLSHAISKSLGCVPSREPPHPVFPEQPEKPLDLAHLVPPRPLTNMNDTVVSHMSSGVPTPTKRLQYSQDMPNLLADEHALIASYVARLQHCTRVLDSPSRLDEEHRLIARYAARLAAEAGNMTRPPTDASFNFDANKQQRQLIAELENKNREILQEIQRLRLEHEQASQPTPEKAQQNPMLLAELRLLRQRKDELEQRMSALQESRRELMVQLEGLMKLLKAQATGSPHTSPTHGGGRPMPMPVRSTSAGSTPTHGPQDSLSGVGGDVQEAFAQGTRRNLRNDLLVAADSITNTMSSLVKELHSGAEAEEQAGTEKTREGLPPRGTFLSVFLLHTWTKLAGCQTHSTSRERSQAYGKWGGTA
modifications: full-length
  Pancreatic ECM: Mean of log2(intensities): 24.61 a.u.
  Native pancreas tissue: Mean of log2(intensities): 21.43 a.u.

B2: Q8BYL4 (protein, UniProt Q8BYL4 1-472, looked up)
chain: MAAPMLRRLCRVPQSLVWLRGSRAVRPGARGMLVAPRARGLFKEFFPESGTKTELPELFDRRRAGSSPQTVYCGFDPTGDSLHVGHLLTLLGLFHFQRAGHNVIALVGGSTALLGDPSGRTKGREALSAECVRANAHALRRGLEALAANHARLFADGRPWGSFTVLDNAAWFQEQHLVDFLATVGGHFRMGTLLSRLSVQSRLKSPEGMSLAEFFYQVLQAYDFYYLFQHYGCRVQLGGSDQLGNIMSGYEFIHKLTGEDVFGITVPLITSTTGAKLGKSAGNAVWLNREKTSPFELYQFFVRQQDDSVERYLKLFTFLPLPEIDHIMQLHVKEPEKRVAQKRLAAEVTKLVHGQEGLDSAKRCTQALYHSSIEALEVMSDQELKELFKEASFSELVLDPGTSVIDTCRKANAIPDGPRGYRMITEGGVSINHRQVTNPESVLVIGQHILKNGLSLLKIGKRNFYIIKWLQL
modifications: full-length
  Pancreatic ECM: Mean of log2(intensities): 25.00 a.u.
  Native pancreas tissue: Mean of log2(intensities): 21.60 a.u.

B3: Q91V01 (protein, UniProt Q91V01 1-487, looked up)
chain: MASTADGDMGETLEQMRGLWPGVEDLSLNKLATSLGASEQALRLIFSIFLGYPLALFYRHYLFYKDSYLIHLFHTFTGLSIAYFNFGHQFYHSLLCVVLQFLILRLMGRTVTAVITTLCFQMAYLLAGYYYTATGDYDIKWTMPHCVLTLKLIGLCIDYYDGGKDGNSLTSEQQKYAIRGVPSLLEVAGFSYFYGAFLVGPQFSMNHYMKLVRGQLTDIPGKMPNSTIPALKRLSLGLVYLVGYTLLSPHITDDYLLTEDYDNRPFWFRCMYMLIWGKFVLYKYVTCWLVTEGVCILSGLGFNGFDENGTVRWDACANMKVWLFETTPRFNGTIASFNINTNAWVARYIFKRLKFLGNKELSQGLSLLFLALWHGLHSGYLICFQMEFLIVIVEKQVSSLIRDSPALSSLASITALQPFYYLVQQTIHWLFMGYSMTAFCLFTWDKWLKVYRSIYFLGHVFFLSLLFILPYIHKAMVPRKEKLKKRE
modifications: full-length
  Pancreatic ECM: Mean of log2(intensities): 25.53 a.u.
  Native pancreas tissue: Mean of log2(intensities): 22.24 a.u.

B4: Q9JHW4 (protein, UniProt Q9JHW4 1-583, looked up)
chain: MAGRRVNVNVGVLGHIDSGKTALARALSTTASTAAFDKQPQSRERGITLDLGFSCFVVPLPGAEPGSSDTLLQVTLVDCPGHASLIRTIIGGAQIIDLMMLVIDVTKGMQTQSAECLVIGQIACQKLVVVLNKIDLLAEGKRQAAIDKMTKKMQKTLENTKFRGAPIIPVAAKPGGPEAPETEAPQGISELIELLKSQISIPTRDPSGPFLMSVDHCFSIKGQGTVMTGTILSGTISLGDSVEIPALKVVKKVKSMQMFHTPVTSAMQGDRLGICVTQFDPKLLERGLVCAPESLHTVHAALISVEKIPYFRGPLQTKAKFHITVGHETVMGRTLFFSPAPDSFDLEPVLDSFDLSREYLFQEQYLCKDSMPTATEGDDEADPKAGHAPGGHCPRQQWALVEFEKPVTCPRLCLVIGSRLDADIHTNTCRLAFHGVLLQGLEDKNYIESFLPALRVYKLKHKHGLVERVMDDYSVIGRSLFKKETNIQLFVGLKVQLSTGEQGIIDSAFGQSGKFKIHIPGGLSPESKKILTPTLKKRSRAGRGETTKPEEGTERPEPIQPVTLNLSFKRYVFDTQKRMVQTP
modifications: full-length
  Pancreatic ECM: Mean of log2(intensities): 25.63 a.u.
  Native pancreas tissue: Mean of log2(intensities): 22.25 a.u.

B5: Q9CZJ2 (protein, UniProt Q9CZJ2 1-685, looked up)
chain: MLTVPEMGLQGLYISSSPERSPVPSPPGSPRTQESCGIAPLTPSQSPKPEARALQQASFSVVVAIDFGTTSSGYAFSFASDPEAIHMMRKWEGGDPGVAHQKTPTCLLLTPEGIFHSFGYTARDYYHDLDPEEARDWLYFEKFKMKIHSATDLTLKTQLEAVNGKKMLALEVFAHALRFFKEHALQELREQSECMLEKGAVRWVLTVPAIWKQPAKQFMREAAYLAGLVSREDAEKLLIALEPEAASVYCRKLRLHQLMDLSSRTAGRGRLGERRSIDSSFRHAREQLRRSRHSRTFLVEAGVGELWAEMQEGDRYMVADCGGGTVDLTVHQLEQPHGTLKELYKASGGPYGAVGVDLAFEQLLCRIFGEDFIAKFKRQRPAAWVDLTIAFEARKRTAGPHRAGALNISLPFSFIDFYRKQRGHNVETALRRSSVNLVKWSSQGMLRMSCEAMNELFQPTVSGIIQHIEMLLAKPEVQGVKLLFLVGGFAESAVLQHAVQEALGTRGLRVVVPHDVGLTILKGAVLFGQAPGVVRVRRSPLTYGVGVLNRFVPGHHPPEKLLVRDGRRWCTDVFERFVAAEQSVALGEEVRRSYCPARPGQRRVLINLYCCAAEDARFITDPGVRKCGALSLELEPEGCPENTGTSPSRREIRAAMQFGDTEIKVTAVDVSTNRSVRAAIDFLSN
modifications: full-length
  Pancreatic ECM: Mean of log2(intensities): 25.80 a.u.
  Native pancreas tissue: Mean of log2(intensities): 22.49 a.u.

B6: Q9ER41 (protein, UniProt Q9ER41 1-336, looked up)
chain: MRRIGAFGGSTALWALLAAHVAGAFEPVSVGIAIGAVSALTGYLSYTDFYCRFTECCHEERPLNTSALKLDLEEKLFGQHLATEVILKALTGFRNNKNSKKPLTLSLHGWAGTGKNFISQIVAENLYPKGLKSNFVHLFVSTLHFPHEQKIKVYQDQLQKWIRGNVSACGSSVFIFDEMDKLHPGIIDAIKPFLDYYEQVDGISYRRAIFIFLSNAGGDLITKTALDFWRAGRKREEIQLKDLEPVLSVGVFNNKHSGLWHSGLIDKNLIDYFIPFLPLEYKHVKMCVRAEMRARGAAVDEDVVTSVADEMTFFPKDEKIYSDKGCKTVQSRLDFH
modifications: full-length
  Pancreatic ECM: Mean of log2(intensities): 24.98 a.u.
  Native pancreas tissue: Mean of log2(intensities): 21.67 a.u.

B7: Q4VA53 (protein, UniProt Q4VA53 1-1446, looked up)
chain: MAHSKTRTNDGKITYPPGVKEISDKISKEEMVRRLKMVVKTFMDMDQDSEEEKELYLNLALHLASDFFLKHPDKDVRLLVACCLADIFRIYAPEAPYTSPDKLKDIFMFITRQLKGLEDTKSPQFNRYFYLLENIAWVKSYNICFELEDSNEIFTQLYRTLFSVINNGHNQKVHMHMVDLMSSIICEGDTVSQELLDTVLVNLVPAHKNLNKQAYDLAKALLKRTAQAIEPYITNFFNQVLMLGKTSISDLSEHVFDLILELYNIDSHLLLSVLPQLEFKLKSNDNEERLQVVKLLAKMFGAKDSELASQNKPLWQCYLGRFNDIHVPIRLECVKFASHCLMNHPDLAKDLTEYLKVRSHDPEEAIRHDVIVSIVTAAKKDILLVNDHLLNFVRERTLDKRWRVRKEAMMGLAQIYKKYSLQSAAGKDAAKQISWVKDKLLHIYYQNSIDDRLLVERIFAQYMVPHNLETTERMKCLYYLYATLDLNAVKALNEMWKCQNLLRHQVKDLLDLIKQPKTDASVKAIFSKVMVITRNLPDPGKAQDFMKKFTQVLEDDEKIRKQLEALVSPTCSCKQAEGCVREITKKLGNPKQPTNPFLEMIKFLLERIAPVHIDTESISALIKQVNKSIDGTADDEDEGVPTDQAIRAGLELLKVLSFTHPISFHSAETFESLLACLKMDDEKVAEAALQIFKNTGSKIEEDFPHIRSALLPVLHHKSKKGPPRQAKYAIHCIHAIFSSKETQFAQIFEPLHKSLDPSNLEHLITPLVTIGHIALLAPDQFAAPLKSLVATFIVKDLLMNDRLPGKKTTKLWVPDEEVSPETMVKIQAIKMMVRWLLGMKNNHSKSGTSTLRLLTTILHSDGDLTEQGKISKPDMSRLRLAAGSAIVKLAQEPCYHEIITLEQYQLCALAINDECYQVRQVFAQKLHKGLSRLRLPLEYMAICALCAKDPVKERRAHARQCLVKNITVRREYLKQHAAVSEKLLSLLPEYVVPYTIHLLAHDPDYVKVQDIEQLKDVKECLWFVLEILMAKNENNSHAFIRKMVENIKQTKDAQGPDDTKMNEKLYTVCDVAMNIIMSKSTTYSLESPKDPVLPARFFTQPDKNFSNTKNYLPPEMKSFFTPGKPKTANVLGAVNKPLSSAGKQSQTKSSRMETVSNASSSSNPSSPGRIKGRLDSSEMDHSENEDYTMSSPLPGKKSDKREDPDLSELEKPRSRKKAPVTDPEEKLGMDDLTKLVQEQKPKGSQRGRKRGRTASDSDEQQWPEEKRHKEELLENEDEQNSPPKKGKRGRPPKPLGGGTSKEEPTMKTSKKGNKKKLVPPVVDDDEEEERQIGNTEHKSKSKQHRTSKRAQQRAESPETSAVESTQSTPQKGRGRPSKAPSPSQPPKKIRVGRSKQVATKENDSSEEMDVLQASSPVSDDTTQEGAEEEDISVGNVRRRSSKRERR
modifications: full-length
  Pancreatic ECM: Mean of log2(intensities): 24.96 a.u.
  Native pancreas tissue: Mean of log2(intensities): 21.56 a.u.

B8: Q8BHS6 (protein, UniProt Q8BHS6 1-379, looked up)
chain: MGYARKVGWVTAGLVIGAGACYCIYRLTRGRKQNKEKMAEGGSGDVDDAGDCSGARYNDWSDDDDDSNESKSIVWYPPWARIGTEAGTRARARARARATRARRAVQKRASPNSDDTVLSPQELQKVLCLVEMSEKPYILEAALIALGNNAAYAFNRDIIRDLGGLPIVAKILNTRDPIVKEKALIVLNNLSVNAENQRRLKVYMNQVCDDTVTSRLNSSVQLAGLRLLTNMTVTNEYQHILANSISDFFRLFSAGNEETKLQVLKLLLNLAENPAMTRELLRAQVPSSLGSLFNKKEYKEVILKLLIIFENINDNFKWEENEPAQNHFSEGSLFFFLKEFQVCADKVLGIESRHDFQVRVKVGKFVAKLTERMFPKSQE
modifications: full-length
  Pancreatic ECM: Mean of log2(intensities): 25.66 a.u.
  Native pancreas tissue: Mean of log2(intensities): 22.35 a.u.

B9: Q8BFZ9 (protein, UniProt Q8BFZ9 1-340, looked up)
chain: MAQLGAVVAVASSFFCASLFSAVHKIEEGHIGVYYRGGALLTSTSGPGFHLMLPFITSYKSVQTTLQTDEVKNVPCGTSGGVMIYFDRIEVVNFLVPNAVYDIVKNYTADYDKALIFNKIHHELNQFCSVHTLQEVYIELFDQIDENLKLALQQDLTSMAPGLVIQAVRVTKPNIPEAIRRNYELMESEKTKLLIAAQKQKVVEKEAETERKKALIEAEKVAQVAEITYGQKVMEKETEKKISEIEDAAFLAREKAKADAECYTALKIAEANKLKLTPEYLQLMKYKAIASNSKIYFGKDIPNMFMDSAGGLGKQFEGLSDDKLGFGLEDEPLEAPTKEN
modifications: full-length
  Pancreatic ECM: Mean of log2(intensities): 26.06 a.u.
  Native pancreas tissue: Mean of log2(intensities): 22.66 a.u.
